The source of these data is publication PMC11009412, “Pathogenic mutations of human phosphorylation sites affect protein–protein interactions” (Nature Communications, 2024).

By UniProt entry, the sequences of proteins in these tests, tags left out. Where a name states a change or a piece, a line headed by the entry shows the natural chain unless it says otherwise.
UniProt Q8WUU5: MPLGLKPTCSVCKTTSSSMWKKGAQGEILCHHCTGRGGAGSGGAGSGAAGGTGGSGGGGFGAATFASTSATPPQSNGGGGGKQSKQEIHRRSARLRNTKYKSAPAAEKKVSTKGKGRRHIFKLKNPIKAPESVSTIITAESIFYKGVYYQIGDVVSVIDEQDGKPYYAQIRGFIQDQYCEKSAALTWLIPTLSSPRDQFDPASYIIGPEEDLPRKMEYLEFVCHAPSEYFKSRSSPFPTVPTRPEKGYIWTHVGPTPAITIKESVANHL

Results are given in words; binding and its absence hold for the method and conditions named. Some binding calls cover weakened binding; strength is not graded here.

Assay [1] addresses human recombinant 14-3-3 epsilon (YWHAE) (human) (UniProt P62258). Description: condition: 400 µM peptide in the syringe, 25 µM 14-3-3ε in the chamber; ITC; PEAQ-ITC, 18 °C, 400 µM peptide in the syringe, 25 µM 14-3-3ε in the reaction chamber; 20 mM HEPES pH 7.0, 150 mM NaCl, 2 mM DTT; both purified.
For assay [2], the target named is T1, human recombinant 14-3-3 epsilon (YWHAE) (human), P62258.
T1 chain: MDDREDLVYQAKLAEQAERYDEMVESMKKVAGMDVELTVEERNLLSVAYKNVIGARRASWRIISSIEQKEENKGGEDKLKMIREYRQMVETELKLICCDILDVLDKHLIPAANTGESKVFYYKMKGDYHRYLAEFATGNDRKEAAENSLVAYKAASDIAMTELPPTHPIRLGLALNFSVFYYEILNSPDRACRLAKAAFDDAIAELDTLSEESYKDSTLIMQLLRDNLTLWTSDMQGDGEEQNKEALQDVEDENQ
Description: crystal structure; 14-3-3ε (13 mg/ml) with the GATAD1 phosphopeptide in 1:2 molar ratio; sitting drop, 19% PEG 3350, 0.35 M NaBr, 0.1 M BisTris-Propane pH 6.5, 20 °C; space group R32, 2 complexes per asymmetric unit; both purified. The note with it: remark: other sources report otherwise.

B1: GATAD1 S102D peptide (soluble, ITC) (peptide, UniProt Q8WUU5 95-109)
peptide: LRNTKYKDAPAAEKK
modifications: N-terminus in amine form; C-terminus in amide form
As to B1, the binding result in assay [1] is listed as “no binding”.

B2: human recombinant 14-3-3 epsilon (YWHAE), P62258 1-255 (protein)
chain: T1 chain
In the case of B2, in assay [2], the binding entry is “binds”.

B3: GATAD1 S102P peptide (soluble, ITC) (peptide, UniProt Q8WUU5 95-109)
peptide: LRNTKYKPAPAAEKK
modifications: N-terminus in amine form; C-terminus in amide form
Regarding B3, in assay [1], the binding entry is given as “no binding”.

B4: GATAD1 S102E peptide (soluble, ITC) (peptide, UniProt Q8WUU5 95-109)
peptide: LRNTKYKEAPAAEKK
modifications: N-terminus in amine form; C-terminus in amide form
For the molecule B4, the binding entry in assay [1] is recorded as “no binding”.
